Laboratory results: doi:10.1101/2024.10.11.617818
No constants are given. Whether binding was seen depends on the method and setting. Binding seen in cells or lysates may run through a third protein. Some entries that bind do so weakly or less than the wild type. Tags and fused reporters may be left off the sequences shown.

Target: T1, YFP:Kin-12F (full length, dexamethasone-induced in Arabidopsis) (Arabidopsis thaliana) (UniProt F4JDI6)
T1 sequence: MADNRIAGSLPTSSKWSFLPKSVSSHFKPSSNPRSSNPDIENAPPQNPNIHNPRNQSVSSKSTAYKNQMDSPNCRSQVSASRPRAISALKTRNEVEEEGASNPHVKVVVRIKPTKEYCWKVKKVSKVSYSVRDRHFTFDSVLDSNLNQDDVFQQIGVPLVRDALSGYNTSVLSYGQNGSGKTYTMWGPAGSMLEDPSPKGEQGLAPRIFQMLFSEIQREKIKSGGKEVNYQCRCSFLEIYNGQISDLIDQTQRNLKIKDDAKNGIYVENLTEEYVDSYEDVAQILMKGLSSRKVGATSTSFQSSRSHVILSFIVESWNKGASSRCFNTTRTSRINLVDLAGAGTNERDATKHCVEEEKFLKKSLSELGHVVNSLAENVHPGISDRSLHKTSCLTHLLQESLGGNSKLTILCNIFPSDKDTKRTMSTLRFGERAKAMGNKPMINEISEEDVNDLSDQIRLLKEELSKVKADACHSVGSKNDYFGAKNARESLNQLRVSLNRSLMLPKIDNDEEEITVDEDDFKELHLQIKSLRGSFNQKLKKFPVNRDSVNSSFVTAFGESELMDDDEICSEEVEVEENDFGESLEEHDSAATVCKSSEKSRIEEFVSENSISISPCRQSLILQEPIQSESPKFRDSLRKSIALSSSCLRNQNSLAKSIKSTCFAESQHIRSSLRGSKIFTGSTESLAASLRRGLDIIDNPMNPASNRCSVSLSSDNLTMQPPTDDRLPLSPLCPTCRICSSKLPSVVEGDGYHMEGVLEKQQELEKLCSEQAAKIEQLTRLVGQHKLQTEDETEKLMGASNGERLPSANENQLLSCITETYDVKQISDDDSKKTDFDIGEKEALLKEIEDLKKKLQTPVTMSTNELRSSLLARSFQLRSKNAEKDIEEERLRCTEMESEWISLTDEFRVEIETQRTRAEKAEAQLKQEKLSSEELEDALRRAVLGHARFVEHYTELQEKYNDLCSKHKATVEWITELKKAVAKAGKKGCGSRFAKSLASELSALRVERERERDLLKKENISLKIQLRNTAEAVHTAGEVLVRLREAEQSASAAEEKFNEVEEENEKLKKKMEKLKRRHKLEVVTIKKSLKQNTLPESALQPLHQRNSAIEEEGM
Assay: co-IP

B1: mCherry:RAB-A2a (p35S::mCherry:RAB-A2a in Arabidopsis) (protein, UniProt O04486 1-217)
chain: MARRPDEEYDYLFKVVLIGDSGVGKSNLLSRFTRNEFCLESKSTIGVEFATRTLQVEGRTVKAQIWDTAGQERYRAITSAYYRGALGALLVYDVTKPTTFENVSRWLKELRDHADSNIVIMLIGNKTDLKHLRAVATEDAQSYAEKEGLSFIETSALEALNVEKAFQTILSEVYRIISKKSISSDQTTANANIKEGQTIDVAATSESNAKKPCCSSS
**Q.** Which binding does the source give for B1 here?
**A.** binds
